# Test results published in the supplement of paper PMC3334620.
# The full ranking holds about 33,000 sequences; the median of “E-score (-0.5 to 0.5)” is about -0.016, and the highest 2% start at about 0.3. This is one part of the list.
# Molecular target: T1, Yer184c (UniProt P39961)
# T1 sequence: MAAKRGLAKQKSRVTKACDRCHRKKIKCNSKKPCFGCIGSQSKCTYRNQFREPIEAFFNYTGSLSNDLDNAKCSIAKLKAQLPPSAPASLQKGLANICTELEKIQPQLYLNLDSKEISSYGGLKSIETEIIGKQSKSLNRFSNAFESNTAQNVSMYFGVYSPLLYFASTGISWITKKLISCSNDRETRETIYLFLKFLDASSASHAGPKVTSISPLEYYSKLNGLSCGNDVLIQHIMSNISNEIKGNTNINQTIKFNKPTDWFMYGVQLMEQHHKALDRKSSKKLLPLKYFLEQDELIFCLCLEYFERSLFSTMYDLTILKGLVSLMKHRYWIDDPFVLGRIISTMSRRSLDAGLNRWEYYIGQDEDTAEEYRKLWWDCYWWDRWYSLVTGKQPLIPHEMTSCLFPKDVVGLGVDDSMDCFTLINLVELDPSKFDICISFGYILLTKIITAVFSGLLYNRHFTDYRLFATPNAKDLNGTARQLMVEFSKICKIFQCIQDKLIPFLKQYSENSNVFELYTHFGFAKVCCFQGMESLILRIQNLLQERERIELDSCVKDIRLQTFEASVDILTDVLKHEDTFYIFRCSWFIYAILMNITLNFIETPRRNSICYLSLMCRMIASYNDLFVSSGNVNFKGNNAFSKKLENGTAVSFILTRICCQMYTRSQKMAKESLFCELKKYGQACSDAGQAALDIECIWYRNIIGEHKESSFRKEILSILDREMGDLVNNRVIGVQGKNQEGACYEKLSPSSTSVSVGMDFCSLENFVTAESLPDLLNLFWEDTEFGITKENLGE
# Experiment: PBM E-score (8-mer binding enrichment) (E-score (-0.5 to 0.5)); higher = stronger / more preferred TF binding
# Conditions: protein concentration: 100 nM; construct: GST-full length
# In short: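 Universal all-10-mer Agilent arrays, double-stranded by primer extension on fresh or once-stripped slides, were probed with about 100-200 nM GST-tagged yeast transcription factors made by PURExpress. Fluorescent anti-GST detected bound protein, and masliner normalised the scans. E-scores from the Universal PBM Analysis Suite were given to each ungapped eight-base word pooled with its reverse complement.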
row,Sequence,PBM E-score
1,GTGGCGCA,-0.186
2,GCGTCGGA,0.185
3,GCTCTAAA,-0.0151
4,ATAAAAGA,0.0206
5,CCTATTCC,-0.0406
6,AGATCGGG,-0.0198
7,CAAGATTC,0.134
8,AGATAGAC,0.0029
9,GAATCAGA,0.198
10,ATATATGC,0.113
11,ACGCTTGG,-0.161
12,CTGCTTGA,-0.107
13,AGCTAACT,-0.0425
14,ACAGTATC,-0.0169
15,ATGAATAA,-0.106
16,GACGGACC,0.14
17,GCTATGGA,-0.192
18,AGGGAACT,-0.0662
19,CGCGCATC,-0.0187
20,ATCTGGGA,-0.2
21,CAAGGGCG,-0.235
22,ACGCAGAT,0.148

row,Sequence,PBM E-score
1,CTCCTTCC,-0.163
2,CCACCCAA,-0.303
3,AATAACGG,0.287
4,GACGATGC,-0.0312
5,TCGCGAGA,0.0874
6,AGCTACGG,-0.102
7,ACGCGCCA,-0.086
8,AGTCAAGC,-0.249
9,ATTTTTAA,0.333
10,CAAAGGAC,-0.24
11,CGATGGTA,-0.146
12,GCAACACC,0.0665
13,AATGGGCA,-0.216
14,CAACTATC,0.0598
15,GCCACAGA,-0.108
16,CGAAACCG,0.253
17,CAACAAGG,0.0959
18,CTGTGCAC,-0.124
19,AAAAATGA,0.0565
20,CTCCTGTC,-0.0001
21,ATAAGGAG,0.0268
22,GCCGTTAC,0.119

# Five entries drawn at random from the list so far, as already listed:
row,Sequence,PBM E-score
17,CAACAAGG,0.0959
4,GACGATGC,-0.0312
22,GCCGTTAC,0.119
11,ACGCTTGG,-0.161
3,GCTCTAAA,-0.0151

# More entries follow.

row,Sequence,PBM E-score
1,CTCCATCA,0.0642
2,GGTGGCAC,-0.209
3,ATTGAGGA,-0.0886
4,AAGGGTGG,-0.257
5,AGCCACCA,-0.138
6,ATATATAG,0.282
7,TCTAATAA,0.0583
8,ACGTATGC,-0.0879
9,ATTCATGC,-0.0971
10,GTTCGCTA,0.024
11,ACCCTGAA,-0.111
12,AGCAACGA,-0.0285
13,GATACGCA,-0.0515
14,GGCAAGAA,0.151
15,GGGGCACA,-0.168
16,GAGCAGGA,0.0604
17,TAAGAACA,0.26
18,ACACAGTG,-0.0369
19,GTTCTTTA,0.178
20,GATCAACC,0.0294
21,TCGCAAAA,0.0605
22,GGCGATAC,-0.0212

row,Sequence,PBM E-score
1,TCGCTCAA,0.047
2,AATGATGA,0.0323
3,CTGGGATA,0.076
4,AGAATTTA,0.121
5,TCGTTTAA,0.11
6,TCGCGACA,-0.0138
7,CTTACCGA,0.259
8,CCAGGGGA,-0.174
9,AAGCATGA,0.0348
10,CCAGTCTC,-0.203
11,GCCAAGCC,-0.157
12,CCACCACG,-0.139
13,AACCTCAC,-0.0921
14,CTAAACCA,0.0368
15,ATATCATC,0.0201
16,ACGGATTA,0.183
17,AATGTGAA,0.171
18,ACTGCGCT,-0.181
19,TCGTACCA,0.099
20,GCGTTGCA,0.107
